Reference: patent US11225505B2, “Antimicrobial polymyxin derivative compounds” (MONASH UNIVERSITY, priority 2015, dated 2022)
Not every detail of the peptide structures is certain; ends, links or a residue may be inferred. At least one structure is not confirmed: it was looked up by name or label, or the drawing left a doubt. Some compounds share one wording; it may come from a single statement. Where a SMILES comes first, the peptide text is derived from it. Bridges are numbered along the chain shown (N, C = ends). [ ]: non-standard residue; d: D form. The star is where a group is joined. Nicotinoyl(6-CF3) = O=C(c1ccc(C(F)(F)F)nc1)*; X2 = O=C(c1cc(Cl)cc(Cl)n1)*; Dab = NCC[C@H](N)C(=O)O; X3 = O=C(c1cncc(Cl)c1)*; Abu = CC[C@H](N)C(=O)O; Dap = NC[C@H](N)C(=O)O

system: A. baumannii FADDI-AB030; assay: In vivo efficacy in a neutropenic mouse lung infection model; set-up: species or system Acinetobacter baumannii; details: 45 mg/kg total, 24 h, neutropenic mice
Protocol: The in vivo efficacy of several compounds was examined in a neutropenic mouse lung infection model against the clinical isolate A. baumannii FADDI-AB030. This Gram-negative isolate is highly multi drug-resistant as illustrated in Table 7.
FADDI-AB030 was subcultured on nutrient agar plates from the −80° C. stock. One colony of the bacterial strain was dispersed in 10-mL CAMHB and incubated overnight. On day 2, an aliquot (0.2 mL) of overnight culture suspension was dispersed in 20-mL CAMHB and incubated for 1.5-2.5 h for production of early log-phase growth bacterial culture. The bacteria in the early log-phase growth suspension were concentrated by centrifugation (3,220 g for 10 min) and re-suspended in sterile 0.9% saline for inoculation into mice. The bacterial cell concentration (colony forming unit [CFU]/mL) in saline was estimated by determining the optical density (OD) of the suspension at 600 nm, and confirmed by plating the suspension on nutrient agar plates. Animal experiments were approved by the institutional animal ethics committee and animals were maintained in accordance with the criteria of the Australian Code of Practice for the Care and Use of Animals for Scientific Purposes. Eight to ten week old, specific-pathogen-free, female Swiss mice (24-30 g) were obtained from Monash Animal Services (Clayton, Victoria, Australia) and were fed, housed and rendered neutropenic by injecting two doses of cyclophosphamide intraperitoneally, −4 day (150 mg/kg) and −1 day (100 mg/kg) prior to inoculation.
Lung infection was produced as follows. Mice (n=4) were anaesthetised by inhalation of 2% to 5% isoflurane in oxygen and rested in the supine position against a restraining board which was angled at 60-70° from the horizontal. […] Bacterial burdens in lungs were determined at 2 h after inoculation (untreated controls) and 24 h later (untreated controls and compound-treated mice). […] The bacterial colonies on the agar plate were counted and the log10 CFU/lung in each mouse was calculated (FIG. 1). […]

| Compound | in vivo antibacterial efficacy (bacterial burden in lung, FIG. 1) compared with polymyxin B at the same dose |
| --- | --- |
| CC[C@@H]1NC(=O)[C@@H](CC(C)C)NC(=O)[C@H](CCN)NC(=O)[C@@H](NC(=O)[C@H](CN)NC(=O)[C@@H](NC(=O)[C@H](CCN)NC(=O)c2ccc(C(F)(F)F)nc2)[C@@H](C)O)CCNC(=O)[C@H]([C@@H](C)O)NC(=O)[C@H](CCN)NC(=O)[C@H](CCN)NC1=O [Compound 3] ({Nicotinoyl(6-CF3)}-[Dab]T[Dap][Dab][Dab][dL][Abu][Dab][Dab]T; lactam 4-C) | improved in vivo antibacterial efficacy |
| CC[C@@H]1NC(=O)[C@@H](CC(C)C)NC(=O)[C@H](CCN)NC(=O)[C@@H](NC(=O)[C@H](CN)NC(=O)[C@@H](NC(=O)[C@H](CCN)NC(=O)c2cncc(Cl)c2)[C@@H](C)O)CCNC(=O)[C@H]([C@@H](C)O)NC(=O)[C@H](CCN)NC(=O)[C@H](CCN)NC1=O [Compound 6] (X3-[Dab]T[Dap][Dab][Dab][dL][Abu][Dab][Dab]T; lactam 4-C) | improved in vivo antibacterial efficacy |
| CC[C@@H]1NC(=O)[C@@H](CC(C)C)NC(=O)[C@H](CCN)NC(=O)[C@@H](NC(=O)[C@H](CN)NC(=O)[C@@H](NC(=O)[C@H](CCN)NC(=O)c2cc(Cl)cc(Cl)n2)[C@@H](C)O)CCNC(=O)[C@H]([C@@H](C)O)NC(=O)[C@H](CCN)NC(=O)[C@H](CCN)NC1=O [Compound 18] (X2-[Dab]T[Dap][Dab][Dab][dL][Abu][Dab][Dab]T; lactam 4-C) | improved in vivo antibacterial efficacy |
